Experimental findings from paper PMC12516131 are described below.

The target in this experiment is eGFP-POK2 2510-2771-8xHis (Arabidopsis thaliana) (UniProt Q27IK6). The experiment in a line: native gel or EMSA; blue native PAGE, 4-12% Tris-Glycine gels, 100 ng of each protein per lane, anti-GFP western blot and silver stain; both purified.

Results are given in words; binding and its absence hold for the method and conditions named. Tags and fused reporters may be left off the sequences shown.

B1: eGFP-POK2 2510-2771-8xHis (domain or fragment, UniProt Q27IK6 2510-2771)
chain: DSRERDLEVSHLKQQLNEYNEKRQGWIEEIEGKQTELVTAQIKLEEHRQYQQLLKKENELLKKENFSHKIKVMELEGEVKKLSSHQNPEWRTRDQARIKEENNVLKLQLDELNLKLRRADVSVSRAKEELAFYRASSVKNPHSNFDKTHQLSTKLKETEEDRMQLAQELLSLCTSILKAAGVTGEDFTDINPEVAEEALEQLKTKLGLLESEVHHFRLKGKAKSRRSRNPERKMPSMPSPRRSWSQSPRSMSQVPFFSSLDR
For the molecule B1, the binding result was “no binding”.
